Experimental findings from the supplement of paper PMC12823440, “Inhibitors supercharge kinase turnover through native proteolytic circuits” (Nature, 2025) are described below.

Sequences of proteins named here, by UniProt entry; tags and fusion partners are left off. A change or cut given only in a name is not applied to a line headed by its entry.
UniProt P06239: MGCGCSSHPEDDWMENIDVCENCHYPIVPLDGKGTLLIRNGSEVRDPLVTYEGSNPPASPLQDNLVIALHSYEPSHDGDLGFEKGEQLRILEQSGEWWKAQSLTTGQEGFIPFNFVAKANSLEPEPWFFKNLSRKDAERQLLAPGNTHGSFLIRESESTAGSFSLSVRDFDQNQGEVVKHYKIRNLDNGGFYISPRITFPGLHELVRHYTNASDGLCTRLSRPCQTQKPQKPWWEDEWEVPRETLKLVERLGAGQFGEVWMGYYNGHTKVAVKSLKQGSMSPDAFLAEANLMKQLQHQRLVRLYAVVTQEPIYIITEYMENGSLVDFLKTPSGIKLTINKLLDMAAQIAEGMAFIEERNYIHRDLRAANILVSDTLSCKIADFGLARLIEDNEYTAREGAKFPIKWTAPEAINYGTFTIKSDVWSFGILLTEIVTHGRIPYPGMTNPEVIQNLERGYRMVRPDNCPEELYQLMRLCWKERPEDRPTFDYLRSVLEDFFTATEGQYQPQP

Counter-ions that a name gives are not always drawn. Some of the results follow. Hit calls seldom repeat between salt and free forms of one compound.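 Kinases, fused to nanoluciferase, were expressed in K562 cells; luminescence was measured every 4 h from 2 to 18 h as percent of control (DMSO = 100%, positive control = 0%). A time point is decreased if signal falls significantly (2 sigma). Hits were called by the authors by a rule that is not shown; the count of time points alone does not decide it.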

The target of this assay is LCK (UniProt P06239). The assay is described as follows: number of time points (of 5) at which kinase-Nluc abundance scored as decreased, DMSO-normalised (count); higher = more persistent destabilization. Particulars: K562; 2-18 h.
As to `CCc1c(C(=O)NNC(=O)C(O)c2cc(F)cc(F)c2)ccc(O)c1C` (stereo not drawn) (10 µM), the “number of time points” value was 0. The same measure for `COc1cc2ncnc(Nc3ccc(Cl)cc3F)c2cc1OC` (10 µM): 0; for `COc1cc(/C=C/C(=O)NCC(O)c2ccc(O)cc2)ccc1O` (stereo not drawn) [N-Feruloyloctopamine] (2.5 µM): 0; for `NC(=O)c1nc(Nc2ccccc2)sc1NC(=O)C1CCCCC1` (10 µM): 0. The same measure for `O=c1cc(CN2CCOCC2)occ1OCCCCCSc1ccnc2cc(C(F)(F)F)ccc12` (10 µM): 0; for `O=C(O)CCC(=O)Nc1ccc(Br)cn1` [Bikinin] (10 µM): 0; for `CC[C@@H](Oc1nc(Oc2cc(C)cc(-c3cccc(CN)c3)c2)c(F)cc1F)C(=O)O` (10 µM): 0. The same measure for `C[C@]1(O)CCN(c2nc(N3C[C@H](O)[C@@H](O)C3)cc(C(F)(F)F)c2C#N)C1` (10 µM): 0; for `COc1ccccc1-c1cc(Nc2cccc(CS(N)(=O)=O)c2)ncn1` (10 µM): 0.

In the case of `CC(=O)c1c(C)cc2cccc(O)c2c1O` [Nepodin] (10 µM), the “number of time points” value is 0. The same measure for `NC(=O)c1ccc2[nH]ccc2c1` (10 µM): 0; for `COc1cc2c(cc1OC)CN(S(=O)(=O)c1ccc(OC)c(N3CCN(C(=O)c4ccc(F)cc4C(F)(F)F)CC3)c1)CC2` (10 µM): 0; for `OCCn1cc(-c2ccc3c(c2)CC/C3=N\O)c(-c2ccncc2)n1` (10 µM): 0. The same measure for `C[C@@H]1CC[C@@H](Nc2nc(NC(C)(C)C)ncc2C(N)=O)C[C@H]1O` (10 µM): 0; for `CCc1cc2c(cc1N1CCC(N3CCOCC3)CC1)C(C)(C)c1[nH]c3cc(C#N)ccc3c1C2=O` [Alectinib] (10 µM): 0; for `COCCNc1nc2ccc(C#CC3(O)CCCCC3)cc2n1-c1ccnc(N)n1` (10 µM): 0. The same measure for `Cc1[nH]c(/C=C2\C(=O)Nc3ccccc32)c(C)c1CCC(=O)O` [Orantinib] (10 µM): 0; for `Nc1cc(C(F)(F)F)c(-c2cc(N3CCOCC3)nc(N3CCOCC3)n2)cn1` [Buparlisib (Hydrochloride)] (2.5 µM): 0; for `CCN1CCN(Cc2ccc(Nc3ncc(F)c(-c4cc(F)c5nc(C)n(C(C)C)c5c4)n3)nc2)CC1` [Abemaciclib (methanesulfonate)] (10 µM): 0. As for `Cc1ccc2cc(-c3c(C)ccc(C(=O)c4c(-c5ccccc5)n(C)n(-c5ccccc5)c4=O)c3N)ccc2n1` (2.5 µM), the “number of time points” value is 0. As to `FC(F)(c1ccc2ncccc2c1)c1nnc2ccc(-c3ccncc3)nn12` (10 µM), the “number of time points” value was 0. The same measure for `O=C1N[C@@H](Cc2c[nH]c3ccccc23)C(=O)N2CCC[C@@H]12` [Brevianamide F] (10 µM): 0; for `Cc1nc2sccn2c(=O)c1CCN1CCC(=C(c2ccccc2)c2ccc(F)cc2)CC1` (10 µM): 0. For `O=c1[nH]c(=O)n([C@@H]2O[C@H](CO)[C@@H](O)[C@@H]2O)cc1/C=C/Br` [Sorivudine] (10 µM), the “number of time points” value stood at 0. The same measure for `COc1cc2nccc(Oc3ccc(NC(=O)NC4CC4)c(Cl)c3)c2cc1C(N)=O` [Lenvatinib (mesylate)] (10 µM): 0; for `CN1C(=O)N[C@H](Cc2c[nH]c3c(Cl)cccc23)C1=O` [Necrostatin 2] (10 µM): 0; for `CCN1CCN(Cc2ccc(Nc3ncc(F)c(-c4cc(F)c5nc(C)n(C(C)C)c5c4)n3)nc2)CC1` [Abemaciclib] (2 µM): 0.

With `Cc1ccc2nc(NCCN)c3ncc(C)n3c2c1` (2.5 µM), the “number of time points” value was 0.

In the case of `CNC(=O)c1c(F)cccc1Nc1nc(Nc2cc3c(cc2OC)CCN3C(=O)CN(C)C)nc2[nH]ccc12` (10 µM), the “number of time points” value came out at 0. The same measure for `Cn1nccc1Nc1nccc(-c2ccn([C@H](CO)c3ccc(Cl)c(F)c3)c(=O)c2)n1` [Ravoxertinib hydrochloride] (10 µM): 0; for `CN(C)CCSSCCNC(=O)C1CCN(C(=O)CSc2ccc(Cl)cc2)CC1` (10 µM): 0. The same measure for `CNC(=O)c1cc(COc2nnc(Nc3ccc(Cl)cc3)c3ccoc23)ccn1` [Telatinib] (10 µM): 0; for `NCCNS(=O)(=O)c1cccc2c(Cl)cccc12` [A-3 (hydrochloride)] (10 µM): 0; for `O=C(Nc1ccc(CN2CCOCC2)cc1)c1ccc(-c2cccc(Cl)c2)o1` (10 µM): 0. As to `CCN1CCN(Cc2ccc(-c3cc4c(N[C@H](C)c5ccccc5)ncnc4[nH]3)cc2)CC1` (2.5 µM), the “number of time points” value was determined as 0. The same measure for `COc1cccc(OC)c1C(=O)OCc1cc(O)ccc1O[C@@H]1O[C@H](CO)[C@@H](O)[C@H](O)[C@H]1O` [Curculigoside] (10 µM): 0; for `Nc1ncnc2c1c(-c1ccc(Oc3ccccc3)cc1)nn2C1CCCC1` (2.5 µM): 0. The same measure for `CC#CC(=O)N1CC[C@@H](n2c(=O)n(-c3ccc(Oc4ccccc4)cc3)c3c(N)ncnc32)C1` [Tirabrutinib] (10 µM): 0.
